Measured values published in paper PMC5628898, “Does consumption of red grapefruit juice alter naringenin concentrations in milk produced by breastfeeding mothers?” (PLoS ONE, 2017).
The source gives many values for each of these; only a part stands here.

Test: Naringenin concentration in milk of breastfeeding mothers on naringenin-restricted diet, before and after 250 ml red grapefruit juice (HPLC after deconjugation)
Settings: female, in vivo
Text: Prior to enrollment, each volunteer was informed about the course and aim of the study, and signed the informed consent. They were also provided with oral and written instructions on the diet that disallowed consumption of any naringenin-containing foods and beverages. The volunteers agreed to follow the diet and not to take any vitamin supplements or any other food supplements for the duration of their participation in the study. They followed the diet for a total of 5 days, refraining from eating foods containing larger quantities of naringenin, such as citrus fruits, citrus fruit juices, citrus fruit pulps, tomatoes and tomato-containing food products, aromatic herbs. For the first two days of the study (pre-exposure) the volunteers collected breast milk samples every 12 hours, each in the amount of four to six ml. On the third day of the study they drank a single 250 ml serving of red grapefruit juice (a 250 ml bottle) in the morning on an empty stomach. In this part of the experiment, the volunteers collected breast milk samples at the following time points: 0 (directly before drinking the juice) and 1, 2, 3, 4, 5, 6, 12, 18, 24, 36 hours post-exposure. Milk samples were collected from full breasts. Milk was collected into chemically pure disposable plastic test tubes.
The samples were frozen by the volunteers at –20°C, regularly collected from the volunteers by the investigator, transported in a laboratory deep freezer, and frozen to –80°C until analysis. Each sample was labelled with the volunteer's initials and with the date and time of sampling. During the study, we remained in constant telephone contact with the volunteers. A commercial 100% grapefruit juice originating from ecological farms in Israel, in 250 ml bottles, were used in the study. […]
Naringenin analysis was done on a Shimadzu HPLC system (Kyoto, Japan), equipped with binary pump (LC-20 AD), degasser (DGU-20A3), refrigerated autosampler (SIL-20 AC, set at 8°C), a column oven (CTO-20 AC, 30°C), a diode array detector (SPD-M20A) and a mass spectrometry detector (2010EV). […] Naringenin was quantified at 287 nm. […]

In the case of `O=C1C[C@@H](c2ccc(O)cc2)Oc2cc(O)cc(O)c21` [naringenin], the “Mean naringenin concentration in human milk” value (from here on “Mean naringenin concentration”) (0 h) is reported as 673.886 nmol/L, the “Mean naringenin concentration” value (36 h) is reported as 701.592 nmol/L and the “Mean naringenin concentration” value (-48 h) is reported as 823.235 nmol/L.
